Reference: publication PMC10298087
These are yes or no findings as the source states them, for the method shown. In cells and extracts the contact can be indirect. Here binding means that the protein was enriched with, or labelled near, the bait; the list need not be complete.

Sequences of proteins named here, by UniProt entry; tags and fusion partners are left off.
UniProt Q13263: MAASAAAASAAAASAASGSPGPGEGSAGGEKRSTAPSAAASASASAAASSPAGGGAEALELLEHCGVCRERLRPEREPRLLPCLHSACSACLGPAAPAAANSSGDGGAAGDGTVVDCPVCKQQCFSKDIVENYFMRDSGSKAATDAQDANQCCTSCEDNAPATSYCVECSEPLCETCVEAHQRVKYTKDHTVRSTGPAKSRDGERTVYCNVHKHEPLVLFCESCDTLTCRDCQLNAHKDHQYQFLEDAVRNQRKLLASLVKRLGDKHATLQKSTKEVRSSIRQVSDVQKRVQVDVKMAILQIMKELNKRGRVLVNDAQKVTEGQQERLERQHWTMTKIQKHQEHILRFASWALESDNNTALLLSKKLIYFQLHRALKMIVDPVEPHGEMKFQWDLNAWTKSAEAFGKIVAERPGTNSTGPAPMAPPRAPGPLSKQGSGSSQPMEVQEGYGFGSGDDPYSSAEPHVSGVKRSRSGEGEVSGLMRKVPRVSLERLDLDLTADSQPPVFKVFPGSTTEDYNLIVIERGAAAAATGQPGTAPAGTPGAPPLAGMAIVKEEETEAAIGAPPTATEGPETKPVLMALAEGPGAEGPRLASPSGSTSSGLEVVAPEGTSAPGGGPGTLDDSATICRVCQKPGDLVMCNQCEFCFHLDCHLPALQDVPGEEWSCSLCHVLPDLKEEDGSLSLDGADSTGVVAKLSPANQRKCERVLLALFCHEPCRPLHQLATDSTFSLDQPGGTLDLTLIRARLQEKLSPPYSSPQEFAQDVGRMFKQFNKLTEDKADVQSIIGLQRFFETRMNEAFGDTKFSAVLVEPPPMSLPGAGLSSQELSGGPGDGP

B1: ZCCHC4 (protein, UniProt Q9H5U6 1-513)
chain: MAASRNGFEAVEAEGSAGCRGSSGMEVVLPLDPAVPAPLCPHGPTLLFVKVTQGKEETRRFYACSACRDRKDCNFFQWEDEKLSGARLAAREAHNRRCQPPLSRTQCVERYLKFIELPLTQRKFCQTCQQLLLPDDWGQHSEHQVLGNVSITQLRRPSQLLYPLENKKTNAQYLFADRSCQFLVDLLSALGFRRVLCVGTPRLHELIKLTASGDKKSNIKSLLLDIDFRYSQFYMEDSFCHYNMFNHHFFDGKTALEVCRAFLQEDKGEGIIMVTDPPFGGLVEPLAITFKKLIAMWKEGQSQDDSHKELPIFWIFPYFFESRICQFFPSFQMLDYQVDYDNHALYKHGKTGRKQSPVRIFTNIPPNKIILPTEEGYRFCSPCQRYVSLENQHCELCNSCTSKDGRKWNHCFLCKKCVKPSWIHCSICNHCAVPDHSCEGPKHGCFICGELDHKRSTCPNIATSKRANKAVRKQKQRKSNKMKMETTKGQSMNHTSATRRKKRRERAHQYLGS
B2: FBRL (protein, UniProt P22087 1-321)
chain: MKPGFSPRGGGFGGRGGFGDRGGRGGRGGFGGGRGRGGGFRGRGRGGGGGGGGGGGGGRGGGGFHSGGNRGRGRGGKRGNQSGKNVMVEPHRHEGVFICRGKEDALVTKNLVPGESVYGEKRVSISEGDDKIEYRAWNPFRSKLAAAILGGVDQIHIKPGAKVLYLGAASGTTVSHVSDIVGPDGLVYAVEFSHRSGRDLINLAKKRTNIIPVIEDARHPHKYRMLIAMVDVIFADVAQPDQTRIVALNAHTFLRNGGHFVISIKANCIDSTASAEAVFASEVKKMQQENMKPQEQLTLEPYERDHAVVVGVYRPPPKVKN
B3: ZNF25 (protein, UniProt P17030 1-456)
chain: MNKFQGPVTLKDVIVEFTKEEWKLLTPAQRTLYKDVMLENYSHLVSVGYHVNKPNAVFKLKQGKEPWILEVEFPHRGFPEDLWSIHDLEARYQESQAGNSRNGELTKHQKTHTTEKACECKECGKFFCQKSALIVHQHTHSKGKSYDCDKCGKSFSKNEDLIRHQKIHTRDKTYECKECKKIFYHLSSLSRHLRTHAGEKPYECNQCEKSFYQKPHLTEHQKTHTGEKPFECTECGKFFYVKAYLMVHQKTHTGEKPYECKECGKAFSQKSHLTVHQRMHTGEKPYKCKECGKFFSRNSHLKTHQRSHTGEKPYECKECRKCFYQKSALTVHQRTHTGEKPFECNKCGKTFYYKSDLTKHQRKHTGEKPYECTECGKSFAVNSVLRLHQRTHTGEKPYACKECGKSFSQKSHFIIHQRKHTGEKPYECQECGETFIQKSQLTAHQKTHTKKRNAEK
B4: ZNF778 (protein, UniProt Q96MU6 1-729)
chain: MAAPDLAHGGHVSRDSVCLHEEQTQAAGMVAGWLINCYQDAVTFDDVAVDFTQEEWTLLDPSQRDLYRDVMLENYENLASVEWRLKTKGPALRQDRSWFRASNETQTARSHNGGQLCDRTQCGEAFSEHSGLSTHVRTQNTGDSCVSNHYERDFFIPCQKTLFKIGEQFSVLGQCGKAFSSTPNVVSQQACTRDRSLDYSSCGEVFLNQSYLQARAGSHNGEETWKWKPCGKALTHSMGCATPVEMHAVRNPHVCRECGKAFRYTAYLTGRVQVHPGEKPCELEECGKASPVSSSLTQHVRIHAAEKPCECKECGKAFTGLSGLSKHVQTDPGQKPYECKDCGKACGGFYLLNEHGKTHTREKPFACVVCGKYFRNSSCLNNHVRIHTGIKPYTCSYCGKAFTVRCGLTRHVRTHTGEKPYTCKDCGKAFCTSSGLTEHVRTHTGEKPYECKDCGKSFTVSSSLTEHARIHTGEKPYECKQCGKAFTGRSGLTKHMRTHTGEKPYECKDCGKAYNRVYLLNEHVKTHTEEKPFICTVCRKSFRNSSCLNKHIQIHTGIKPYECKDCGKTFTVSSSLTEHIRTHTGEKPYECKVCGKAFTTSSHLIVHIRTHTGEKPYICKECGKAFASSSHLIEHRRTHTGEKPYICNECGKAFRASSHLHKHGRIHTGQKPYKCKECGKAYNRFYLLKEHLKTYTEEQVFVCKDCGKSFKNSSCLNHHTQIHTDEKPF
B5: EDC4 (protein, UniProt Q6P2E9 1-1401)
chain: MASCASIDIEDATQHLRDILKLDRPAGGPSAESPRPSSAYNGDLNGLLVPDPLCSGDSTSANKTGLRTMPPINLQEKQVICLSGDDSSTCIGILAKEVEIVASSDSSISSKARGSNKVKIQPVAKYDWEQKYYYGNLIAVSNSFLAYAIRAANNGSAMVRVISVSTSERTLLKGFTGSVADLAFAHLNSPQLACLDEAGNLFVWRLALVNGKIQEEILVHIRQPEGTPLNHFRRIIWCPFIPEESEDCCEESSPTVALLHEDRAEVWDLDMLRSSHSTWPVDVSQIKQGFIVVKGHSTCLSEGALSPDGTVLATASHDGYVKFWQIYIEGQDEPRCLHEWKPHDGRPLSCLLFCDNHKKQDPDVPFWRFLITGADQNRELKMWCTVSWTCLQTIRFSPDIFSSVSVPPSLKVCLDLSAEYLILSDVQRKVLYVMELLQNQEEGHACFSSISEFLLTHPVLSFGIQVVSRCRLRHTEVLPAEEENDSLGADGTHGAGAMESAAGVLIKLFCVHTKALQDVQIRFQPQLNPDVVAPLPTHTAHEDFTFGESRPELGSEGLGSAAHGSQPDLRRIVELPAPADFLSLSSETKPKLMTPDAFMTPSASLQQITASPSSSSSGSSSSSSSSSSSLTAVSAMSSTSAVDPSLTRPPEELTLSPKLQLDGSLTMSSSGSLQASPRGLLPGLLPAPADKLTPKGPGQVPTATSALSLELQEVEPLGLPQASPSRTRSPDVISSASTALSQDIPEIASEALSRGFGSSAPEGLEPDSMASAASALHLLSPRPRPGPELGPQLGLDGGPGDGDRHNTPSLLEAALTQEASTPDSQVWPTAPDITRETCSTLAESPRNGLQEKHKSLAFHRPPYHLLQQRDSQDASAEQSDHDDEVASLASASGGFGTKVPAPRLPAKDWKTKGSPRTSPKLKRKSKKDDGDAAMGSRLTEHQVAEPPEDWPALIWQQQRELAELRHSQEELLQRLCTQLEGLQSTVTGHVERALETRHEQEQRRLERALAEGQQRGGQLQEQLTQQLSQALSSAVAGRLERSIRDEIKKTVPPCVSRSLEPMAGQLSNSVATKLTAVEGSMKENISKLLKSKNLTDAIARAAADTLQGPMQAAYREAFQSVVLPAFEKSCQAMFQQINDSFRLGTQEYLQQLESHMKSRKAREQEAREPVLAQLRGLVSTLQSATEQMAATVAGSVRAEVQHQLHVAVGSLQESILAQVQRIVKGEVSVALKEQQAAVTSSIMQAMRSAAGTPVPSAHLDCQAQQAHILQLLQQGHLNQAFQQALTAADLNLVLYVCETVDPAQVFGQPPCPLSQPVLLSLIQQLASDLGTRTDLKLSYLEEAVMHLDHSDPITRDHMGSVMAQVRQKLFQFLQAEPHNSLGKAARRLSLMLHGLVTPSLP
B6: ZBT11 (protein, UniProt O95625 1-1053)
chain: MSSEESYRAILRYLTNEREPYAPGTEGNVKRKIRKAAACYVVRGGTLYYQRRQRHRKTFAELEVVLQPERRRDLIEAAHLGPGGTHHTRHQTWHYLSKTYWWRGILKQVKDYIKQCSKCQEKLDRSRPISDVSEMLEELGLDLESGEESNESEDDLSNFTSSPTTASKPAKKKPVSKHELVFVDTKGVVKRSSPKHCQAVLKQLNEQRLSNQFCDVTLLIEGEEYKAHKSVLSANSEYFRDLFIEKGAVSSHEAVVDLSGFCKASFLPLLEFAYTSVLSFDFCSMADVAILARHLFMSEVLEICESVHKLMEEKQLTVYKKGEVQTVASTQDLRVQNGGTAPPVASSEGTTTSLPTELGDCEIVLLVNGELPEAEQNGEVGRQPEPQVSSEAESALSSVGCIADSHPEMESVDLITKNNQTELETSNNRENNTVSNIHPKLSKENVISSSPEDSGMGNDISAEDICAEDIPKHRQKVDQPLKDQENLVASTAKTDFGPDDDTYRSRLRQRSVNEGAYIRLHKGMEKKLQKRKAVPKSAVQQVAQKLVQRGKKMKQPKRDAKENTEEASHKCGECGMVFQRRYALIMHKLKHERARDYKCPLCKKQFQYSASLRAHLIRHTRKDAPSSSSSNSTSNEASGTSSEKGRTKREFICSICGRTLPKLYSLRIHMLKHTGVKPHACQVCGKTFIYKHGLKLHQSLHQSQKQFQCELCVKSFVTKRSLQEHMSIHTGESKYLCSVCGKSFHRGSGLSKHFKKHQPKPEVRGYHCTQCEKSFFEARDLRQHMNKHLGVKPFQCQFCDKCYSWKKDWYSHVKSHSVTEPYRCNICGKEFYEKALFRRHVKKATHGKKGRAKQNLERVCEKCGRKFTQLREYRRHMNNHEGVKPFECLTCGVAWADARSLKRHVRTHTGERPYVCPVCSEAYIDARTLRKHMTKFHRDYVPCKIMLEKDTLQFHNQGTQVAHAVSILTAGMQEQESSGPQELETVVVTGETMEALEAVAATEEYPSVSTLSDQSIMQVVNYVLAQQQGQKLSEVAEAIQTVKVEVAHISGGE
B7: ZNF512 (protein, UniProt Q96ME7 1-567)
chain: MSSRLGAVPATSGPTTFKQQRSTRIVGAKNSRTQCSIKDNSFQYTIPHDDSLSGSSSASSCEPVSDFPASFRKSTYWMKMRRIKPAATSHVEGSGGVSAKGKRKPRQEEDEDYREFPQKKHKLYGRKQRPKTQPNPKSQARRIRKEPPVYAAGSLEEQWYLEIVDKGSVSCPTCQAVGRKTIEGLKKHMENCKQEMFTCHHCGKQLRSLAGMKYHVMANHNSLPILKAGDEIDEPSERERLRTVLKRLGKLRCMRESCSSSFTSIMGYLYHVRKCGKGAAELEKMTLKCHHCGKPYRSKAGLAYHLRSEHGPISFFPESGQPECLKEMNLESKSGGRVQRRSAKIAVYHLQELASAELAKEWPKRKVLQDLVPDDRKLKYTRPGLPTFSQEVLHKWKTDIKKYHRIQCPNQGCEAVYSSVSGLKAHLGSCTLGNFVAGKYKCLLCQKEFVSESGVKYHINSVHAEDWFVVNPTTTKSFEKLMKIKQRQQEEEKRRQQHRSRRSLRRRQQPGIELPETELSLRVGKDQRRNNEELVVSASCKEPEQEPVPAQFQKVKPPKTNHKRGRK
B8: ZNF12 (protein, UniProt P17014 1-697)
chain: MNKSLGPVSFKDVAVDFTQEEWQQLDPEQKITYRDVMLENYSNLVSVGYHIIKPDVISKLEQGEEPWIVEGEFLLQSYPDEVWQTDDLIERIQEEENKPSRQTVFIETLIEERGNVPGKTFDVETNPVPSRKIAYKNSLCDSCEKCLTSVSEYISSDGSYARMKADECSGCGKSLLHIKLEKTHPGDQAYEFNQNGEPYTLNEESLYQKIRILEKPFEYIECQKAFQKDTVFVNHMEEKPYKWNGSEIAFLQMSDLTVHQTSHMEMKPYECSECGKSFCKKSKFIIHQRTHTGEKPYECNQCGKSFCQKGTLTVHQRTHTGEKPYECNECGKNFYQKLHLIQHQRTHSGEKPYECSYCGKSFCQKTHLTQHQRTHSGERPYVCHDCGKTFSQKSALNDHQKIHTGVKLYKCSECGKCFCRKSTLTTHLRTHTGEKPYECNECGKFFSRLSYLTVHYRTHSGEKPYECNECGKTFYLNSALMRHQRVHTGEKPYECNECGKLFSQLSYLTIHHRTHSGVKPYECSECGKTFYQNSALCRHRRIHKGEKPYECYICGKFFSQMSYLTIHHRIHSGEKPYECSECGKTFCQNSALNRHQRTHTGEKAYECYECGKCFSQMSYLTIHHRIHSGEKPFECNECGKAFSRMSYLTVHYRTHSGEKPYECTECGKKFYHKSAFNSHQRIHRRGNMNVIDVGRLL

Target: wild-type TRIM28 (endogenous, K562 cells) (human (endogenous in K562)) (UniProt Q13263)
Assay: affinity purification with mass spectrometry; IP of endogenous TRIM28 or TRIM28-K304Q from K562 cells with anti-TRIM28-N-conjugated protein A beads; washed, eluted with the antibody-generating peptide; MS (LTQ-Orbitrap Velos, Mascot)

binding, binds:
B1, B2, B3, B4, B5, B6, B7, B8
